The text below walks through data of publication PMC7819943, “Rice protein-binding microarrays: a tool to detect cis-acting elements near promoter regions in rice”.

This is one part of the list.

The assay addresses T1, OsSMF1 (Oryza sativa, UniProt Q6ZLB0 1-436).
T1 sequence: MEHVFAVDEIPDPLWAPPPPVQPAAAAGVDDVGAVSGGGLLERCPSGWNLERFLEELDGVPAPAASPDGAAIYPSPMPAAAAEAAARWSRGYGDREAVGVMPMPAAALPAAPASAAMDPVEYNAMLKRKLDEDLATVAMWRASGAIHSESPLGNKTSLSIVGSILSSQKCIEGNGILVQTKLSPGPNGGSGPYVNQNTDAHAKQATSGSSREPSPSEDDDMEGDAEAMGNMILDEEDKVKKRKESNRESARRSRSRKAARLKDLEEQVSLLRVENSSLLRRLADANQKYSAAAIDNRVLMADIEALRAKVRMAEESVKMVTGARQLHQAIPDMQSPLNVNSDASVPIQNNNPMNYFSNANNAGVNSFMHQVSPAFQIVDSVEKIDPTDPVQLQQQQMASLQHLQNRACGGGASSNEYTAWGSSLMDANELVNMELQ
As to the kind of experiment: protein-binding microarray (RPBM); PBS, 2% BSA, 51.3 ng/ul salmon testes DNA, 50 uM zinc acetate, 200 nM TF, 25 C, 1 h; high values mean tight binding. To be noted: protein: recombinant; tags: N-terminal polyhistidine and DsRed monomer fusion (pET32a); chain copies: 2; label: CyDye5-dUTP incorporated in the synthesized complementary strand; 3' TTTTT single-stranded linker to array surface; dsDNA, one strand shown. The essentials:
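Binding signal here means per-feature fluorescence intensity in arbitrary units. The values were read on an Axon 4000B scanner after a custom Agilent array, double-stranded by primer extension with Cy5-dUTP, was incubated with 200 nM protein at 25 °C for 1 h in PBS with 2% BSA, salmon testes DNA and 50 µM zinc acetate, then washed. The proteins were transcription factors with an N-terminal polyhistidine tag and DsRed, expressed in E. coli BL21-CodonPlus and purified on Ni–NTA.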
On to “CGGCCACGCATGGTCGCCTGAGTCATCGTCCTTCCACTCTCGGAGTCACCTAGTGCAG”, for which the binding signal was 9340 fluorescence intensity (a.u.).
“AAGTTGCTTTAAAATATCAAATATATCCATTTGTTAAATTCGGAGTCACCTAGTGCAG”: the binding signal was 32100 fluorescence intensity (a.u.).
To “GTATTGCACAAGTTAATGAATAAATAAGAAGAGTCTTACCCGGAGTCACCTAGTGCAG” belongs 28100 fluorescence intensity (a.u.); to “TAGCTAGGCCACGCGCACGCCACGACGGCCCGCACATATGCGGAGTCACCTAGTGCAG”, 3880 fluorescence intensity (a.u.); to “TCTACCTGGCCCCACATGTCATCCACTCGTGCTACGCAGCCGGAGTCACCTAGTGCAG”, 3440 fluorescence intensity (a.u.).
In the case of “CCGATACCGTATCGCTCGCGTATCCCACGTATCGCCGTATCGGAGTCACCTAGTGCAG”, the binding signal is 4740 fluorescence intensity (a.u.).
Take “CCCAAAGTCAACCACATACGTGCTGTTGTGTAGTCACATTCGGAGTCACCTAGTGCAG”: the binding signal was 3580 fluorescence intensity (a.u.).
Regarding “TCTCACATGGTCGTATGTAATGCGTAAATTTCATAAAGAACGGAGTCACCTAGTGCAG”, the binding signal was 19400 fluorescence intensity (a.u.).
On to “GGTCGCTGTCGTTGGCGGGTGCGGGGAGGTGGCGGTTACGCGGAGTCACCTAGTGCAG”, for which the binding signal is 4820 fluorescence intensity (a.u.).
On to “CATGTCAAAGTGCCACGCCAGCGAAACTGCGTTCTAAAACCGGAGTCACCTAGTGCAG”, for which the binding signal was 7780 fluorescence intensity (a.u.).
The figure for “ATCGACGATGAAGATGATGACGAGGATATCGTATATATGGCGGAGTCACCTAGTGCAG” is 4190 fluorescence intensity (a.u.); for “CCCAACCCAGAGCGGTTTTGTCCAACGTGGCACACGCGTGCGGAGTCACCTAGTGCAG” it is 19600 fluorescence intensity (a.u.); for “GTCTCGCTCGCGTCGTCGTGGTGAGGGGTGACGCGAGTCACGGAGTCACCTAGTGCAG” it is 3600 fluorescence intensity (a.u.).
For “CTCAAAGCATTATAAAACTTGCTGGCTTTGTCCCCTTCATCGGAGTCACCTAGTGCAG”, the binding signal is 3250 fluorescence intensity (a.u.).
To “CCCTATTAATGCAACAGCTTCCTGTTTCAGTCTGTACTCTCGGAGTCACCTAGTGCAG” belongs 3680 fluorescence intensity (a.u.).
In the case of “CTATTAAACTTGCTCAAAGAGATCAGAGGGGTGGCAATTGCGGAGTCACCTAGTGCAG”, the binding signal is 3460 fluorescence intensity (a.u.).
The figure for “AATGGTAAAATCCCACGTCATCGTAACCAAGGTGCGACCCCGGAGTCACCTAGTGCAG” is 17900 fluorescence intensity (a.u.); for “GTGTTTTGTTCTGGTCACAAGTTAGTCATGCCAAACTTTCCGGAGTCACCTAGTGCAG” it is 4230 fluorescence intensity (a.u.).
To “AGATTGGAGTAGTTAACCTTGGCAAGCTCACCCGTCAACTCGGAGTCACCTAGTGCAG” belongs 3320 fluorescence intensity (a.u.).
For the sequence “TGGATGGGATGTAGTACTACTGTGGCTTCGCCACCGGATCCGGAGTCACCTAGTGCAG”, the binding signal is 3260 fluorescence intensity (a.u.).
Turning to “GCGTCGGACGGTGGCTTGCCGGCTGCAATGATGTGGTGCCCGGAGTCACCTAGTGCAG”, the binding signal is 3900 fluorescence intensity (a.u.).
As to “CTCTCAACCGGGCCCTGCTCCACCGCAGCGCCACCAACAACGGAGTCACCTAGTGCAG”, the binding signal is 22600 fluorescence intensity (a.u.).
To “CACCTCGGTACGTGTTCGACATGTTACACATATTTGATCTCGGAGTCACCTAGTGCAG” belongs 5460 fluorescence intensity (a.u.).
In the case of “CTCCGGTGCACGTAGGTCAATTAGGCGTACAGTCACCGGTCGGAGTCACCTAGTGCAG”, the binding signal is 8510 fluorescence intensity (a.u.).
As for “CACCCTTCTCCGACGAGAACCCCAACCGCCGCAACCCGGACGGAGTCACCTAGTGCAG”, the binding signal was 3200 fluorescence intensity (a.u.).
Consider “AATCTAAAGACAGTTGAACACAACGCACTTGTCCCTCACACGGAGTCACCTAGTGCAG”, for which the binding signal is 22600 fluorescence intensity (a.u.).
The figure for “CATCCCACAAAGTACACAAAACTCAGAGCCCTTCCATCCTCGGAGTCACCTAGTGCAG” is 21000 fluorescence intensity (a.u.); for “CGAGGCTCGGTGAGGTTGACAGCACTGCACTTCACAGTTCCGGAGTCACCTAGTGCAG” it is 3580 fluorescence intensity (a.u.); for “TCACGCTCATACAGTCATAGTACTACGTACTCCATACTGCCGGAGTCACCTAGTGCAG” it is 4350 fluorescence intensity (a.u.).
The figure for “CCTTTCCGGTCATATCAGCGTCCTTCGCCCGACCAATCACCGGAGTCACCTAGTGCAG” is 3340 fluorescence intensity (a.u.); for “TCCGATTGCATTTTCACAAGCGAAAATAAGGTGACGTCATCGGAGTCACCTAGTGCAG” it is 20700 fluorescence intensity (a.u.).
As for “CAAGGCGGTTGGCACTGAGACCCTGCCACGTAGACGAGGGCGGAGTCACCTAGTGCAG”, the binding signal is 14500 fluorescence intensity (a.u.).
To “TCCACTGCCTAGACACGCCACGACTTGGACCATCAGCTAGCGGAGTCACCTAGTGCAG” belongs 4280 fluorescence intensity (a.u.); to “CAGGGGCTCCAATACTGACGCGTCGCCGGCGTACGTCCTCCGGAGTCACCTAGTGCAG”, 4300 fluorescence intensity (a.u.); to “CTATGGCAGTACGGAGGGCGGTATCGGCCTACGTGGCACACGGAGTCACCTAGTGCAG”, 19000 fluorescence intensity (a.u.).
To “TGGCCCATTACAAAGCAACGTCACCGTTCCGGGCAGAAAACGGAGTCACCTAGTGCAG” belongs 4950 fluorescence intensity (a.u.); to “TGCCGCGCGGAGCTTTTAAAACGCCGCAACTTCCTTCCTTCGGAGTCACCTAGTGCAG”, 20800 fluorescence intensity (a.u.); to “AAATTAAAATTGATCGAAATTGGGAACAAATTAAGCCAGACGGAGTCACCTAGTGCAG”, 33800 fluorescence intensity (a.u.).
For “TGATCAGCTCGCCACGTCACCGTCACCGCCTCGCCTCGCTCGGAGTCACCTAGTGCAG”, the binding signal was 35300 fluorescence intensity (a.u.).
The figure for “CATCTCCTGTCGCGTCGTCCTTCGCCACGACGATCCCCTCCGGAGTCACCTAGTGCAG” is 4180 fluorescence intensity (a.u.); for “TCCAGATCAAACTGCCACGTGAGCACCACATCAATGTCACCGGAGTCACCTAGTGCAG” it is 23200 fluorescence intensity (a.u.); for “CGCCGTCCCGGAGTGGGACAGGCGGCGGGCGGGATCCGACCGGAGTCACCTAGTGCAG” it is 28700 fluorescence intensity (a.u.).
